Reference: PMC7229820

Target: T1, Flag-tagged NONO (UniProt Q99K48)
T1 sequence: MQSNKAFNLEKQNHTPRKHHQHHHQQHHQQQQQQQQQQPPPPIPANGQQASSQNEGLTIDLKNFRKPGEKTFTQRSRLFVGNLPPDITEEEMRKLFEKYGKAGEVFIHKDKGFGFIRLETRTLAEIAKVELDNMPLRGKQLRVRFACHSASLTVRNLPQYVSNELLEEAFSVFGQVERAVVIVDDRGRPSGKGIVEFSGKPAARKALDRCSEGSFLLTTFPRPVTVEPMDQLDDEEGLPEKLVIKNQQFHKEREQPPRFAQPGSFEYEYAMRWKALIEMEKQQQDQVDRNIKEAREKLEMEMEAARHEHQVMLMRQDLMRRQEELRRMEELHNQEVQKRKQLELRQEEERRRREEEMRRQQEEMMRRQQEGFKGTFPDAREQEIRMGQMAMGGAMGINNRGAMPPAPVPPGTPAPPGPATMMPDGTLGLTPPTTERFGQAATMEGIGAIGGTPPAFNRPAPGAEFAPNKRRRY
Test: pull-down; 5 ug Flag-NONO incubated with 5 ug GST or 5 ug GST-TET1CD in 200 ul of 50 mM Tris-HCl pH 8.0, 150 mM NaCl, 0.1% Triton X-100 for 3 h at 4 C; Flag beads for 1 h at 4 C; Western blot and Coomassie staining; both purified

- binding: binds
Substance: GST-tagged TET1 catalytic domain (CD) (domain or fragment)

No constants are given. Whether binding was seen depends on the method and setting. Binding can be weak; no strength is given. Sequences can lack the tags named with a protein.
